A short description of the data set: general procedure: Fmoc solid-phase peptide synthesis; 2-chlorotrityl chloride resin (functionalized with hydrazine or Fmoc-Cys(Trt)-amino-alcohol); TentaGel-MB-RAM-resin; HCTU/DIPEA. Particulars: whole synthesis, overall.

Substance “(H-Chex-Arg-Pro-Asp-Lys-Pro-Arg-Pro-Tyr-Leu-Pro-Arg-Pro-Arg-Pro-Pro-Arg-Pro-Val-Arg)2-Dab” registered an isolated yield of 30%.

The values are drawn from patent publication US20200323950A1 (priority 2017, published 2020).
